{
  "sequences": {"note": "The chains behind the UniProt entries cited, without tags or fusion partners.", "UniProt Q02248": "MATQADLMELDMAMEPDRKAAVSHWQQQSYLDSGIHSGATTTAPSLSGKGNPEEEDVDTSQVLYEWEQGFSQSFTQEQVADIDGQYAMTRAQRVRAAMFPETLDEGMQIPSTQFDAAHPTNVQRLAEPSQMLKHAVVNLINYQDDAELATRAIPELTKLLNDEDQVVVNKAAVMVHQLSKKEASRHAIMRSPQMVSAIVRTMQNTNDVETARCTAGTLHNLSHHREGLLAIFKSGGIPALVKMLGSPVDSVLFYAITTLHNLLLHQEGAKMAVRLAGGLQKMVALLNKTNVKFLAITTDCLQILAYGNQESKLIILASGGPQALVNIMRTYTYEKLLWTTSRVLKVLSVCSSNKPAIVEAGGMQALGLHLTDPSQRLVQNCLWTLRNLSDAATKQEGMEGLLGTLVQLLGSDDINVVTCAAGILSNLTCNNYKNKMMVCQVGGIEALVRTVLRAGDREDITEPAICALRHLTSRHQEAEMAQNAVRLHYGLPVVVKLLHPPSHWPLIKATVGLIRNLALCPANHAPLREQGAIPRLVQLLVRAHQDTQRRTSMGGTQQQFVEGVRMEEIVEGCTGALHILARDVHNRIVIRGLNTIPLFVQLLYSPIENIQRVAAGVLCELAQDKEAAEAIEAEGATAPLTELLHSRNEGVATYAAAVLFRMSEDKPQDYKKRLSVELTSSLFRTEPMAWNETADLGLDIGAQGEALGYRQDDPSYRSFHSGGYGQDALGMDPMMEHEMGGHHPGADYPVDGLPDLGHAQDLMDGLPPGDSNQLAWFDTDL", "UniProt P45481": "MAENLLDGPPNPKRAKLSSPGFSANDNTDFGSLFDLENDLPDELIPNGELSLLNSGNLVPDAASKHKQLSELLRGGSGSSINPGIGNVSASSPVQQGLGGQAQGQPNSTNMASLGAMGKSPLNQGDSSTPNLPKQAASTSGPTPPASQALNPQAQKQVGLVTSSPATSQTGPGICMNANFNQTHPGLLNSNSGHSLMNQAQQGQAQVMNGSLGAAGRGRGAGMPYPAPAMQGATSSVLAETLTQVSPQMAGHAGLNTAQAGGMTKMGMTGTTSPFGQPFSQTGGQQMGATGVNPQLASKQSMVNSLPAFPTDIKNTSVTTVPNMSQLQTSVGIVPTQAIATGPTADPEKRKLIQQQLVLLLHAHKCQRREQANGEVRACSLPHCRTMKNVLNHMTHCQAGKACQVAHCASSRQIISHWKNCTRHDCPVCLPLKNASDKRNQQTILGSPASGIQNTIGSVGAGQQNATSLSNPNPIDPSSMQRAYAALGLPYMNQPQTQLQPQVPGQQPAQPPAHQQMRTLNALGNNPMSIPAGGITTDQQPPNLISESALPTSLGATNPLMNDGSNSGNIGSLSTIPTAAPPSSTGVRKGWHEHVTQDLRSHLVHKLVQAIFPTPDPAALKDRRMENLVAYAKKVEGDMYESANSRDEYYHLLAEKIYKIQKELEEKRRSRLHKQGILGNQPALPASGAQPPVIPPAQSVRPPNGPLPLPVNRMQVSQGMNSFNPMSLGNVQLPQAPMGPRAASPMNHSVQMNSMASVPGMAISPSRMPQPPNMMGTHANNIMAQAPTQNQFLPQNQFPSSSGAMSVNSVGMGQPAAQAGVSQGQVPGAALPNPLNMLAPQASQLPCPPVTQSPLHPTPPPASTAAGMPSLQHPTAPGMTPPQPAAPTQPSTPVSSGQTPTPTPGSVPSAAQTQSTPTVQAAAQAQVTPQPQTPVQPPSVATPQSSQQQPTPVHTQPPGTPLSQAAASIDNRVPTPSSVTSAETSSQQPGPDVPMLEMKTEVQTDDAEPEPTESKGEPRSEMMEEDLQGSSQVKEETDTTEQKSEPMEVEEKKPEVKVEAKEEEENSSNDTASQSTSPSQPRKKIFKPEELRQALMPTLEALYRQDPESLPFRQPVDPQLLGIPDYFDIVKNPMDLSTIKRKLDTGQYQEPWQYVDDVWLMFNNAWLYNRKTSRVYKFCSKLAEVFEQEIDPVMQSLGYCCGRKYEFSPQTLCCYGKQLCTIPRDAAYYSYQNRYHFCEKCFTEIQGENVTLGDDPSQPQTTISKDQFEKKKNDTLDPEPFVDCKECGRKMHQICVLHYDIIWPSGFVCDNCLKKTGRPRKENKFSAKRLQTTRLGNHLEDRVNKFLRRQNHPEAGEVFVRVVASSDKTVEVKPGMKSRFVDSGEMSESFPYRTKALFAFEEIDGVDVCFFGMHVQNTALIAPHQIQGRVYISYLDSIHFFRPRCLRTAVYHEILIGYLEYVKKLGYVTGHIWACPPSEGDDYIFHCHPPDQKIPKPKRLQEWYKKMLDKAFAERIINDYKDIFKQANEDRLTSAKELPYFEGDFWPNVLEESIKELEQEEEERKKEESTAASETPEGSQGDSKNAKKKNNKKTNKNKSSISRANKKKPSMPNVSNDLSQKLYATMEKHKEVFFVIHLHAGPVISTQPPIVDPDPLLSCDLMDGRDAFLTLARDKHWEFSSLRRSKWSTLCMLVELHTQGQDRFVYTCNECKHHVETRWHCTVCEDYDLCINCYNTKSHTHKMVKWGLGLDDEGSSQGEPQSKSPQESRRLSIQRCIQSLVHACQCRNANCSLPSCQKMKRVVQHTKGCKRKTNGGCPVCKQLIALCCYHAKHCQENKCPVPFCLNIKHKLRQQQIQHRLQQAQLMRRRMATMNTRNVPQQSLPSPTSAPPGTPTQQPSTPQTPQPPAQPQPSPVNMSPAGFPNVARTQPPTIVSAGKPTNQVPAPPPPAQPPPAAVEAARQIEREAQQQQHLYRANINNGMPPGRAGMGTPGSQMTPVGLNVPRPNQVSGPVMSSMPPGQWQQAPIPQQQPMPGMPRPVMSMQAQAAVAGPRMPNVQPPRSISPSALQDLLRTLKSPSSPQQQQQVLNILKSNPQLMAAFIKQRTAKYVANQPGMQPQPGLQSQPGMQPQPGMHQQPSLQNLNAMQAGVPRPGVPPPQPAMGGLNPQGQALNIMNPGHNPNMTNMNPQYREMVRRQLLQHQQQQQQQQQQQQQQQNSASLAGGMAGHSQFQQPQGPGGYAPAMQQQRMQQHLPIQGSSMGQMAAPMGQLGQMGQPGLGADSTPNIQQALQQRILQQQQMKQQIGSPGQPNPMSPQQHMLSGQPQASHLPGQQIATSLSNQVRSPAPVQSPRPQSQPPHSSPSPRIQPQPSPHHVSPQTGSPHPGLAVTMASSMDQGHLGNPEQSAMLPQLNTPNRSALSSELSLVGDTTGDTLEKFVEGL"},
  "source": "paper PMC6180044",
  "biological_target": "β-catenin (mouse (endogenous in C2C12)) (UniProt Q02248)",
  "test": "co-IP; nuclear extracts (Nuclear Extraction Kit) of proliferating or differentiated C2C12 cells; IP with mouse monoclonal antibodies against β-catenin, KAT2B or CBP; immunoblot with rabbit polyclonal antibodies against active β-catenin, KAT2B and CBP; IgG control",
  "note": "No constants are given. Whether binding was seen depends on the method and setting. In cells and extracts the contact can be indirect. Some results given as binding are weak or reduced against the parent protein; the word gives no strength.",
  "data": [
    {"substance": "cAMP-response element-binding protein (CREB)-binding protein (CBP) (from UniProt P45481 1-2441)", "values": [
      {"measurement": "binding", "result": "binds"}
    ]}
  ]
}
